This passage reports binding results from article PMC10940162.

Sequences of proteins named here, by UniProt entry; tags and fusion partners are left off.
UniProt Q96RT7: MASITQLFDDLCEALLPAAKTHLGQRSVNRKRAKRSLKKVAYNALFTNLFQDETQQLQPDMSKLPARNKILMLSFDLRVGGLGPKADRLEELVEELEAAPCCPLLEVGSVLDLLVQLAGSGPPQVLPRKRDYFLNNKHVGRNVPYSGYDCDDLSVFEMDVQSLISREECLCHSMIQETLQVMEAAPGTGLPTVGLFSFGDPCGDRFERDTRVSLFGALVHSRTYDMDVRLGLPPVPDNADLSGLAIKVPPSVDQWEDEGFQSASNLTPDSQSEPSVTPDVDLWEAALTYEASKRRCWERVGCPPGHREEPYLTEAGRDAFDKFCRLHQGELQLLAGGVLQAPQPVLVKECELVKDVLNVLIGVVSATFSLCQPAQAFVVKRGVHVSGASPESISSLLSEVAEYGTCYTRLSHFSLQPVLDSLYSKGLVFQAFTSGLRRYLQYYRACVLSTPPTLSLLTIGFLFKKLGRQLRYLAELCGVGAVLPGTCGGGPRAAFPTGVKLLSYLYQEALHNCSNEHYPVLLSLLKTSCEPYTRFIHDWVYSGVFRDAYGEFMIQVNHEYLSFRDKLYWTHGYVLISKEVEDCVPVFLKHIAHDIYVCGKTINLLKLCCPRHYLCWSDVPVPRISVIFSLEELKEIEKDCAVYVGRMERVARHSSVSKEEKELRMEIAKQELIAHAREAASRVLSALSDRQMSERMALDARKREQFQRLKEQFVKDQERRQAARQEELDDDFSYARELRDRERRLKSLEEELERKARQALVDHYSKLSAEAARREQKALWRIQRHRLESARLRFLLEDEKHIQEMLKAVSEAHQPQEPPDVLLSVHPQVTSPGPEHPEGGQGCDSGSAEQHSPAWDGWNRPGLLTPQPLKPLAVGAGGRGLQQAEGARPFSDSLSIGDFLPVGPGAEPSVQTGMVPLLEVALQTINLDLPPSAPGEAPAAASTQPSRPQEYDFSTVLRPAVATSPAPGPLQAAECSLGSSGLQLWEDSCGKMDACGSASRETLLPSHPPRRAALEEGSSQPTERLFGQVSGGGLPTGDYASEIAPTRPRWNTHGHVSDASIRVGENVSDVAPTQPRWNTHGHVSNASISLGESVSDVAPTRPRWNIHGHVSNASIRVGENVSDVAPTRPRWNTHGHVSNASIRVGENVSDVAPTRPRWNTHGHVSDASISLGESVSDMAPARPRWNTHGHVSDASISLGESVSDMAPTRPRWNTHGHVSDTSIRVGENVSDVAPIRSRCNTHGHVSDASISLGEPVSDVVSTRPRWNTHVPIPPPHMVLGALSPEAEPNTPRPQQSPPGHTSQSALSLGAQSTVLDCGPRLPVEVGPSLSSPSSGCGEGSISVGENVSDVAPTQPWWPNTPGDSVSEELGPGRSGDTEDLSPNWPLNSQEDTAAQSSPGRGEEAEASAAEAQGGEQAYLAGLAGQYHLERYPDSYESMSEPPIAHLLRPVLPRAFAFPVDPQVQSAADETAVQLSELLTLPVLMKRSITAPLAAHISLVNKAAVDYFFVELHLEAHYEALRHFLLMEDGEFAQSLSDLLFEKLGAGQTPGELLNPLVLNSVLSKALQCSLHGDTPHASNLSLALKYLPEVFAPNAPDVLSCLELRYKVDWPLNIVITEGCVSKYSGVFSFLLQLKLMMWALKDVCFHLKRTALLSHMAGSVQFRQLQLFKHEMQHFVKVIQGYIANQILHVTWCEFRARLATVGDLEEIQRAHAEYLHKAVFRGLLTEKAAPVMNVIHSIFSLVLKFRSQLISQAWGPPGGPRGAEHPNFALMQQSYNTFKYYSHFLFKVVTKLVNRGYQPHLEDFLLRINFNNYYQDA
UniProt Q9UGJ1: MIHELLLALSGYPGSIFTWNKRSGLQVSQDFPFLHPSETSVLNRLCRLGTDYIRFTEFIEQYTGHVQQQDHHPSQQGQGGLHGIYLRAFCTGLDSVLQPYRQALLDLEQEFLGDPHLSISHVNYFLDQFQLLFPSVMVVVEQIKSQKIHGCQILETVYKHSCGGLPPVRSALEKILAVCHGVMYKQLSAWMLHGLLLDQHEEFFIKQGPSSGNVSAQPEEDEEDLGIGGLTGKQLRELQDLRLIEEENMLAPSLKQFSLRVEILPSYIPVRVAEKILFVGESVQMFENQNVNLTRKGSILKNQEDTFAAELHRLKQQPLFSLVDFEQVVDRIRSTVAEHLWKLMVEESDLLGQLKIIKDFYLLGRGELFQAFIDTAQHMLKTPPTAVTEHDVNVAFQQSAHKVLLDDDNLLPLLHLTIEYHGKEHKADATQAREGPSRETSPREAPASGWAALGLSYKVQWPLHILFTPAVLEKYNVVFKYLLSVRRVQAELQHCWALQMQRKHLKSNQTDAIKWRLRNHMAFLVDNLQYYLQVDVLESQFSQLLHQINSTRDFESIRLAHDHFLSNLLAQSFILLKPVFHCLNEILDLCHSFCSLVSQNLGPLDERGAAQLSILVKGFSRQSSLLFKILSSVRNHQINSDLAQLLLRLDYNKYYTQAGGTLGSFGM
UniProt Q96RT8: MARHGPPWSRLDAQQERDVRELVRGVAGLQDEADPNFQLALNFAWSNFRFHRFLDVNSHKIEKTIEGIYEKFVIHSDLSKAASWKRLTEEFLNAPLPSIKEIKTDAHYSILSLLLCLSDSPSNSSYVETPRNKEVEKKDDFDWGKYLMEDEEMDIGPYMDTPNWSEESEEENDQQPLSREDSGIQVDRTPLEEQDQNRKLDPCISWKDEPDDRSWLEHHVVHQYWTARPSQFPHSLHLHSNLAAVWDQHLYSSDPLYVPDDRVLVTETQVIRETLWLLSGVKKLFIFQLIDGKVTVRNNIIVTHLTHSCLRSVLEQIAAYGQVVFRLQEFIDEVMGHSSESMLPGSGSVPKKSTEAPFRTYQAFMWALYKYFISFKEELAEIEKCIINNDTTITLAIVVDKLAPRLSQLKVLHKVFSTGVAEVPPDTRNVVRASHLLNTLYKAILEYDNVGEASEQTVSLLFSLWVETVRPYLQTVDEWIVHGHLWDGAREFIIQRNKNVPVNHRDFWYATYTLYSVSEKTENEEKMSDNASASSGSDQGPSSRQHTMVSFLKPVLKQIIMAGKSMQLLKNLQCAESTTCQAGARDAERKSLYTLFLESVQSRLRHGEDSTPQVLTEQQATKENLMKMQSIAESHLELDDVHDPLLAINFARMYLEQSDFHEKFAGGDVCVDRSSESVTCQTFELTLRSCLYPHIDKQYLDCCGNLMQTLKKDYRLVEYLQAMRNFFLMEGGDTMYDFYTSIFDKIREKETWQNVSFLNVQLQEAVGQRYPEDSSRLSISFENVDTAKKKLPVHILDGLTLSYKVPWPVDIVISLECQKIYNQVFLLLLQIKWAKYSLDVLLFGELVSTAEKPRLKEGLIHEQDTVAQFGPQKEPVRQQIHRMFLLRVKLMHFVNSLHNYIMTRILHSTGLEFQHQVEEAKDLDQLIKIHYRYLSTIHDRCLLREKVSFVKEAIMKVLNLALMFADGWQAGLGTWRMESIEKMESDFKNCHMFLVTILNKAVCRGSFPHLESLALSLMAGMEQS

These are yes or no findings as the source states them, for the method shown. In cells and extracts the contact can be indirect. Here binding means that the protein was enriched with, or labelled near, the bait; the list need not be complete.

This test concerns the target GCP6–GFP–SII (human (endogenous in HEK293T)) (UniProt Q96RT7). In words: affinity purification with mass spectrometry; Strep-Tactin purification of endogenously tagged GCP6–GFP–SII from HEK293T knockin cell lysate (elution with 300 mM NaCl); MS with iBAQ.

For GCP4 (from UniProt Q9UGJ1 1-667), the binding entry is “binds”.

Turning to GCP5 (from UniProt Q96RT8 1-1024), the binding entry is “binds”.
